# Results reported in paper doi:10.1101/2022.09.27.509696.
# Chains of the proteins cited; added tags and fusions are not shown. Lines headed by an entry give the natural chain unless they say otherwise; changes in a name come on top. A line that says so, or that is headed by a name, gives the form on record, which may keep a tag or linker. Residues count along the entry.
# UniProt Q9NYM4, residues 17-423: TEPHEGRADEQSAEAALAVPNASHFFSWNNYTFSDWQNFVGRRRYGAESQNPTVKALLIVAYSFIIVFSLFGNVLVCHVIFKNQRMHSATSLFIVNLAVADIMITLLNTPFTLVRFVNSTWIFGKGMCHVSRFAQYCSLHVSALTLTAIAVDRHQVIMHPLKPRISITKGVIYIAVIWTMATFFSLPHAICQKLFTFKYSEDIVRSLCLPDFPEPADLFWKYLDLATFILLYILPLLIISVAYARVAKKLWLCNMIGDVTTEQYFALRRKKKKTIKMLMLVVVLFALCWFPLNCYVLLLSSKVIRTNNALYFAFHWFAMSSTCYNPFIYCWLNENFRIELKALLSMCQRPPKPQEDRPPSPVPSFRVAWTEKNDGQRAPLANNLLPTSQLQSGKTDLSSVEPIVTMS
# UniProt Q92847: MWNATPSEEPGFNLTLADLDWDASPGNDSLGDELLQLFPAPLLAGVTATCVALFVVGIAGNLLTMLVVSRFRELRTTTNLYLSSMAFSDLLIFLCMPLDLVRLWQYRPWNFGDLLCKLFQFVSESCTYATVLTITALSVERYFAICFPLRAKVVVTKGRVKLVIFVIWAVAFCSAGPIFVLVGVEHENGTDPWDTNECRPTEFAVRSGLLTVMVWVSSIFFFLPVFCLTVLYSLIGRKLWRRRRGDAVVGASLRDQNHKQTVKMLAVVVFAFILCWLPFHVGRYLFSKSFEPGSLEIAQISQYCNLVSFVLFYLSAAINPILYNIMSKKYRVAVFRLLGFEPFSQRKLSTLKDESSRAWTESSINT
# SmBiT-FAM237A (A0A1B0GTK4, residues 34-113): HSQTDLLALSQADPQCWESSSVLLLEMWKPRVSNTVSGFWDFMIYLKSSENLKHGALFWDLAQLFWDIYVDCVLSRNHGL
# [G79A]FAM237A (A0A1B0GTK4, form named): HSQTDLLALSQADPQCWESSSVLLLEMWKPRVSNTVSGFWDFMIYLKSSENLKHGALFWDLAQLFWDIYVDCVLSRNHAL
# [H78A]FAM237A (A0A1B0GTK4, form named): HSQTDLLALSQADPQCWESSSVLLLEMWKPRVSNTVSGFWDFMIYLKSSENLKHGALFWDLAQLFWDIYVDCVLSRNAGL
# [L80A]FAM237A (A0A1B0GTK4, form named): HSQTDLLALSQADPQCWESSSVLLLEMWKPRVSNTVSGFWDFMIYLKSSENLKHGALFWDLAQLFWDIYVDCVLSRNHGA
# UniProt P06307: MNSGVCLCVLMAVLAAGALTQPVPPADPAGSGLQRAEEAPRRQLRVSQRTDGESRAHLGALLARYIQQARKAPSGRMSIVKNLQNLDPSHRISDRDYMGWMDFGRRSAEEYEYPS
# No constants are given. Whether binding was seen depends on the method and setting. Binding seen in cells or lysates may run through a third protein. Some binding calls cover weakened binding; strength is not graded here. For some assays here: Where a sequence is shown, tags or fusion partners need not be part of it.
# Columns and labels:
# Experiment in all cases: split reporter
# [1] = target: GPR83-LgBiT (C-terminally LgBiT-fused full-length human GPR83) (human) (UniProt Q9NYM4)
# [2] = target: sLgBiT-GHSR1a (sLgBiT-fused growth hormone secretagogue receptor type 1a) (UniProt Q92847)
# [3] = target: T1, sLgBiT-RXFP3 (sLgBiT-fused relaxin family peptide receptor 3) (UniProt Q9NSD7)
# T1 sequence: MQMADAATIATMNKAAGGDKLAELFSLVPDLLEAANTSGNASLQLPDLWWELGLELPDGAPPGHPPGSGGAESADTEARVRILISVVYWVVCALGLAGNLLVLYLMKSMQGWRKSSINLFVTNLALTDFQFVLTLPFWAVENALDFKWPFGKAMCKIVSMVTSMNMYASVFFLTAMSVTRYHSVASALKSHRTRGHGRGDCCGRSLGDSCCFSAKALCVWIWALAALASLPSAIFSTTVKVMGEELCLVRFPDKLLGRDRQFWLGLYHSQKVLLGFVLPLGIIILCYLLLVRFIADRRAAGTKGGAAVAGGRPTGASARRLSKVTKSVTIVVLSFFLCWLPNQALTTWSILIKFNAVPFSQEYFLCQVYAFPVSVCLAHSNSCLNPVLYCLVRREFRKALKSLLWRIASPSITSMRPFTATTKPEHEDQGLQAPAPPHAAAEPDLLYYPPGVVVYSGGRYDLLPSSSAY
# [4] = target: sLgBiT-GPR83 (N-terminally sLgBiT-fused mature human GPR83) (human) (UniProt Q9NYM4)
Substance,binding [4],other results
SmBiT-ARRB2 (N-terminally SmBiT-fused human β-arrestin 2) (from UniProt P32121-1 1-409),–,binding [1]: binds
SmBiT-FAM237A (from UniProt A0A1B0GTK4 34-113) (ligand),binds,binding [2]: no binding; binding [3]: no binding
[G79A]FAM237A (from UniProt A0A1B0GTK4 34-113) (ligand),binds weakly,–
[H78A]FAM237A (from UniProt A0A1B0GTK4 34-113) (ligand),binds weakly,–
[L80A]FAM237A (from UniProt A0A1B0GTK4 34-113) (ligand),binds weakly,–
proCCK56-63 (procholecystokinin-derived peptide) (from UniProt P06307 56-63),no binding,–
